Results are given in words; binding and its absence hold for the method and conditions named. Binding seen in cells or lysates may run through a third protein. Some binding calls cover weakened binding; strength is not graded here.
Columns and labels:
[1] = biological target: 6His-IF2γ (E. coli K-12 MG1655) (UniProt P0A705); experiment: pull-down; His-tagged IF2 variants overexpressed in E. coli with chromosomal NusA-HaloTag (or plasmid-borne HaloTag alone); lysate loaded on HisPur cobalt resin at 4 °C, 20 mM Tris-HCl pH 7.5, 200 mM NaCl, 5 mM MgCl2, 5% glycerol, wash with 20 mM imidazole, elution with 300 mM imidazole; HaloTag proteins detected in SDS-PAGE by JFX549 dye
[2] = biological target: 6His-IF2α (E. coli K-12 MG1655) (UniProt P0A705); experiment: as above

Protein sequences, listed by entry. Tags and fused reporters are not part of them. Lines headed by an entry give the natural chain unless they say otherwise; changes in a name come on top. Residues count along the entry.
UniProt P0A705: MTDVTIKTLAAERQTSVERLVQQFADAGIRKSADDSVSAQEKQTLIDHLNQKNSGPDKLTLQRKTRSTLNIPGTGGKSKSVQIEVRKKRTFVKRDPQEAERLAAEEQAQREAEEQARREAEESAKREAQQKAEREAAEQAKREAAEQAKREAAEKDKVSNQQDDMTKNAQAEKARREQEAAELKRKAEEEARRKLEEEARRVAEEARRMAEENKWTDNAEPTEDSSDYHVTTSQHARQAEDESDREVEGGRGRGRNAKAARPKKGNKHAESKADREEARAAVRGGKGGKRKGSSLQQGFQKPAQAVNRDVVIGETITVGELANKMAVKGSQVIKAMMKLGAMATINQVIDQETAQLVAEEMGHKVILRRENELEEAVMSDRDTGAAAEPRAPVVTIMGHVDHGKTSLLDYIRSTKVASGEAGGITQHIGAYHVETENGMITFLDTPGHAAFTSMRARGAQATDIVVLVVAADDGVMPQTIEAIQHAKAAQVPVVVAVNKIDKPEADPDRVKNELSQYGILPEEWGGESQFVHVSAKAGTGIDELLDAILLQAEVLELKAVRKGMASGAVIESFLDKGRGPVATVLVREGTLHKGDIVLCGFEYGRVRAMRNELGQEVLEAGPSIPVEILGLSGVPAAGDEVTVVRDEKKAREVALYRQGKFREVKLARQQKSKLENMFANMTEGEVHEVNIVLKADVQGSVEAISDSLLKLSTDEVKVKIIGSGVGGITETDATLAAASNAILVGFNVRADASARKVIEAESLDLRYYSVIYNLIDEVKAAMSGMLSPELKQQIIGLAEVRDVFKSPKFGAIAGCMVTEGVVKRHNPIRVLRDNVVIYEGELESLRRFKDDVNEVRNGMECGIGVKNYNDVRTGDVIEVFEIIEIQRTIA
6His-IF2γ: residues 165-890 of P0A705

binding [1]: no binding | binding [2]: binds
Substance: NusA-HaloTag (from UniProt P0AFF6 1-495)

— PMC12297416
